Patent US20090099195A1 (ASTRAZENECA AB, priority 2007, published 2009)
Some results were stated once for a whole list of compounds, not compound by compound.

molecular target: T1, P2X3 receptors (UniProt P56373); test: FLIPR antagonist assay, receptor or clone not stated (less preferred compounds); details: compounds also tested
T1 sequence (P56373 1-397): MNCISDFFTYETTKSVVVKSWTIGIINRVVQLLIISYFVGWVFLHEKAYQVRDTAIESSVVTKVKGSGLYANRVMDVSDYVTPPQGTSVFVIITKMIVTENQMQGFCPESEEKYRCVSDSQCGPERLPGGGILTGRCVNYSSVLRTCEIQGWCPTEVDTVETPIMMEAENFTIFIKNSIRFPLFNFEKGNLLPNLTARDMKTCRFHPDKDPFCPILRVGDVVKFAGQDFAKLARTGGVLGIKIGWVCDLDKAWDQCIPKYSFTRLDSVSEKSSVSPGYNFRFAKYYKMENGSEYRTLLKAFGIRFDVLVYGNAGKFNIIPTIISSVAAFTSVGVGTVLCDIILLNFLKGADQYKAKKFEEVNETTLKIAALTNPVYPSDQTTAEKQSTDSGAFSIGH

IC50, > 3.3 µM:
CC(C)N1Cc2c(NCc3cnc4ccccc4c3)nc(NCc3cn(C)cn3)nc2C1=O [6-(1-methylethyl)-2-{[(1-methyl-1H-imidazol-4-yl)methyl]amino}-4-[(quinolin-3-ylmethyl)amino]-5,6-dihydro-7H-pyrrolo[3,4-d]pyrimidin-7-one], CC(=O)N1CCN(c2nc(NCc3cc(C)n[nH]3)c3c(n2)C(=O)N(C(C)C)C3)CC1 [2-(4-acetylpiperazin-1-yl)-6-(1-methylethyl)-4-{[(3-methyl-1H-pyrazol-5-yl)methyl]amino}-5,6-dihydro-7H-pyrrolo[3,4-d]pyrimidin-7-one], CC(=O)N1CCN(c2nc(NCc3ccc(C(F)(F)F)nc3)c3c(n2)C(=O)N(C(C)C)C3)CC1 [2-(4-acetylpiperazin-1-yl)-6-(1-methylethyl)-4-({[6-(trifluoromethyl)pyridin-3-yl]methyl}amino)-5,6-dihydro-7H-pyrrolo[3,4-d]pyrimidin-7-one], CC(=O)N1CCN(c2nc3c(c(N4CCCC4c4nc(C(C)C)no4)n2)CN(C(C)C)C3=O)CC1 (stereo not shown) [2-(4-acetylpiperazin-1-yl)-6-(1-methylethyl)-4-{2-[3-(1-methylethyl)-1,2,4-oxadiazol-5-yl]pyrrolidin-1-yl}-5,6-dihydro-7H-pyrrolo[3,4-d]pyrimidin-7-one], CC(=O)N1CCN(c2nc(NCC3Cc4ccccc4C3)c3c(n2)C(=O)N(C(C)C)C3)CC1 [2-(4-acetylpiperazin-1-yl)-4-[(2,3-dihydro-1H-inden-2-ylmethyl)amino]-6-(1-methylethyl)-5,6-dihydro-7H-pyrrolo[3,4-d]pyrimidin-7-one], CC(C)N1Cc2c(NCc3ccncc3)nc(N3CCOCC3)nc2C1=O [6-(1-methylethyl)-2-morpholin-4-yl-4-[(pyridin-4-ylmethyl)amino]-5,6-dihydro-7H-pyrrolo[3,4-d]pyrimidin-7-one], CC(C)N1Cc2c(Nc3ccc(N4CCCC4)cc3)nc(N3CCOCC3)nc2C1=O [6-(1-methylethyl)-2-morpholin-4-yl-4-[(4-pyrrolidin-1-ylphenyl)amino]-5,6-dihydro-7H-pyrrolo[3,4-d]pyrimidin-7-one], CC(=O)N1CCN(c2nc(N[C@H]3c4ccccc4C[C@H]3O)c3c(n2)C(=O)N(C(C)C)C3)CC1 [2-(4-acetylpiperazin-1-yl)-4-{[(1S,2R)-2-hydroxy-2,3-dihydro-1H-inden-1-yl]amino}-6-(1-methylethyl)-5,6-dihydro-7H-pyrrolo[3,4-d]pyrimidin-7-one], CC(=O)NCCNc1nc(NCc2nc(-c3ccccc3)no2)c2c(n1)C(=O)N(C(C)C)C2 [N-(2-{[6-(1-methylethyl)-7-oxo-4-{[(3-phenyl-1,2,4-oxadiazol-5-yl)methyl]amino}-6,7-dihydro-5H-pyrrolo[3,4-d]pyrimidin-2-yl]amino}ethyl)acetamide], CC(C)N1Cc2c(Nc3ccc4c(c3)OCO4)nc(N3CCOCC3)nc2C1=O [4-(1,3-benzodioxol-5-ylamino)-6-(1-methylethyl)-2-morpholin-4-yl-5,6-dihydro-7H-pyrrolo[3,4-d]pyrimidin-7-one], Cc1ccc(F)c(Nc2nc(N3CCOCC3)nc3c2CN(C(C)C)C3=O)c1 [4-[(2-fluoro-5-methylphenyl)amino]-6-(1-methylethyl)-2-morpholin-4-yl-5,6-dihydro-7H-pyrrolo[3,4-d]pyrimidin-7-one], CC(C)N1Cc2c(Nc3ccc(N4CCOCC4)nc3)nc(N3CCOCC3)nc2C1=O [6-(1-methylethyl)-2-morpholin-4-yl-4-[(6-morpholin-4-ylpyridin-3-yl)amino]-5,6-dihydro-7H-pyrrolo[3,4-d]pyrimidin-7-one], CC(=O)N1CCN(c2nc(NCc3cc(C4CC4)[nH]n3)c3c(n2)C(=O)N(C(C)C)C3)CC1 [2-(4-acetylpiperazin-1-yl)-4-{[(5-cyclopropyl-1H-pyrazol-3-yl)methyl]amino}-6-(1-methylethyl)-5,6-dihydro-7H-pyrrolo[3,4-d]pyrimidin-7-one], CC(C)N1Cc2c(NC(c3ccncc3)c3ccc(Cl)cc3)nc(NCCN(C)C)nc2C1=O (stereo not shown) [4-{[(4-chlorophenyl)(pyridin-4-yl)methyl]amino}-2-{[2-(dimethylamino)ethyl]amino}-6-(1-methylethyl)-5,6-dihydro-7H-pyrrolo[3,4-d]pyrimidin-7-one], COCCc1noc(C(C)Nc2nc(N3CCN(C(C)=O)CC3)nc3c2CN(C(C)C)C3=O)n1 (stereo not shown) [2-(4-acetylpiperazin-1-yl)-4-({1-[3-(2-methoxyethyl)-1,2,4-oxadiazol-5-yl]ethyl}amino)-6-(1-methylethyl)-5,6-dihydro-7H-pyrrolo[3,4-d]pyrimidin-7-one], CCOc1ccc(C(=O)Nc2nc(N3CCN(C(C)=O)CC3)nc3c2CN(C(C)C)C3=O)cc1 [N-[2-(4-acetylpiperazin-1-yl)-6-(1-methylethyl)-7-oxo-6,7-dihydro-5H-pyrrolo[3,4-d]pyrimidin-4-yl]-4-ethoxybenzamide], Cc1ccc(CCNc2nc(NCCN(C)C)nc3c2CN(C(C)C)C3=O)cc1C [2-{[2-(dimethylamino)ethyl]amino}-4-{[2-(3,4-dimethylphenyl)ethyl]amino}-6-(1-methylethyl)-5,6-dihydro-7H-pyrrolo[3,4-d]pyrimidin-7-one], CCC(Nc1nc(N2CCN(C(C)=O)CC2)nc2c1CN(C(C)C)C2=O)c1ccccc1 (stereo not shown) [2-(4-acetylpiperazin-1-yl)-6-(1-methylethyl)-4-[(1-phenylpropyl)amino]-5,6-dihydro-7H-pyrrolo[3,4-d]pyrimidin-7-one], CC(=O)Nc1ccccc1Nc1nc(N2CCOCC2)nc2c1CN(C(C)C)C2=O [N-(2-{[6-(1-methylethyl)-2-morpholin-4-yl-7-oxo-6,7-dihydro-5H-pyrrolo[3,4-d]pyrimidin-4-yl]amino}phenyl)acetamide], CC(C)N1Cc2c(NC(c3ccc(Cl)cc3)c3nccn3C)nc(NCCN(C)C)nc2C1=O (stereo not shown) [4-{[(4-chlorophenyl)(1-methyl-1H-imidazol-2-yl)methyl]amino}-2-{[2-(dimethylamino)ethyl]amino}-6-(1-methylethyl)-5,6-dihydro-7H-pyrrolo[3,4-d]pyrimidin-7-one], CC(=O)N1CCN(c2nc(NC(C)c3nc(C(C)C)no3)c3c(n2)C(=O)N(C(C)C)C3)CC1 (stereo not shown) [2-(4-acetylpiperazin-1-yl)-6-(1-methylethyl)-4-({1-[3-(1-methylethyl)-1,2,4-oxadiazol-5-yl]ethyl}amino)-5,6-dihydro-7H-pyrrolo[3,4-d]pyrimidin-7-one], CCN(CC)C1CCN(c2nc(NCc3cnc4ccccc4c3)c3c(n2)C(=O)N(C(C)C)C3)C1 (stereo not shown) [2-[3-(diethylamino)pyrrolidin-1-yl]-6-(1-methylethyl)-4-[(quinolin-3-ylmethyl)amino]-5,6-dihydro-7H-pyrrolo[3,4-d]pyrimidin-7-one], CC(C)N1Cc2c(Nc3ccc(Oc4ccccc4)nc3)nc(N3CCOCC3)nc2C1=O [6-(1-methylethyl)-2-morpholin-4-yl-4-[(6-phenoxypyridin-3-yl)amino]-5,6-dihydro-7H-pyrrolo[3,4-d]pyrimidin-7-one], CC(C)N1Cc2c(NCc3ccc(-c4ccccc4)cc3)nc(NCCN(C)C)nc2C1=O [4-[(biphenyl-4-ylmethyl)amino]-2-{[2-(dimethylamino)ethyl]amino}-6-(1-methylethyl)-5,6-dihydro-7H-pyrrolo[3,4-d]pyrimidin-7-one], CC(=O)N1CCN(c2nc3c(c(N(C)C(c4ccccc4)c4ccccc4)n2)CN(C(C)C)C3=O)CC1 [2-(4-acetylpiperazin-1-yl)-4-[(diphenylmethyl)(methyl)amino]-6-(1-methylethyl)-5,6-dihydro-7H-pyrrolo[3,4-d]pyrimidin-7-one], CC(C)N1Cc2c(nc(N3CCOCC3)nc2N2CCC(CO)CC2)C1=O [4-[4-(hydroxymethyl)piperidin-1-yl]-6-(1-methylethyl)-2-morpholin-4-yl-5,6-dihydro-7H-pyrrolo[3,4-d]pyrimidin-7-one], CC(=O)N1CCN(c2nc(NC(C)c3ccncc3)c3c(n2)C(=O)N(C(C)C)C3)CC1 (stereo not shown) [2-(4-acetylpiperazin-1-yl)-6-(1-methylethyl)-4-[(1-pyridin-4-ylethyl)amino]-5,6-dihydro-7H-pyrrolo[3,4-d]pyrimidin-7-one], CC(=O)N1CCN(c2nc(NC(C)C3CCCCC3)c3c(n2)C(=O)N(C(C)C)C3)CC1 (stereo not shown) [2-(4-acetylpiperazin-1-yl)-4-[(1-cyclohexylethyl)amino]-6-(1-methylethyl)-5,6-dihydro-7H-pyrrolo[3,4-d]pyrimidin-7-one], CC(C)N1Cc2c(nc(N3CCOCC3)nc2N2CCN(CCO)CC2)C1=O [4-[4-(2-hydroxyethyl)piperazin-1-yl]-6-(1-methylethyl)-2-morpholin-4-yl-5,6-dihydro-7H-pyrrolo[3,4-d]pyrimidin-7-one], CC(=O)N1CCN(c2nc3c(c(N4CCC[C@@H]4C(=O)NCc4ccccc4)n2)CN(C(C)C)C3=O)CC1 [1-[2-(4-acetylpiperazin-1-yl)-6-(1-methylethyl)-7-oxo-6,7-dihydro-5H-pyrrolo[3,4-d]pyrimidin-4-yl]-N-benzyl-D-prolinamide], CC(=O)N1CCN(c2nc(NC(CN(C)C)c3ccccc3)c3c(n2)C(=O)N(C(C)C)C3)CC1 (stereo not shown) [2-(4-acetylpiperazin-1-yl)-4-{[2-(dimethylamino)-1-phenylethyl]amino}-6-(1-methylethyl)-5,6-dihydro-7H-pyrrolo[3,4-d]pyrimidin-7-one]
